Out of some 220,000 compounds screened, about 770 (0.35%) were called active. The shares of active, inactive and inconclusive entries below differ from those in the screen. Cut-off read from the data, not from the text of the source: active = binding response below about 49% or above about 150%; inconclusive = no clear call, values can overlap the other calls; inactive = in between.
Target: Guanine nucleotide-binding protein G(o) subunit alpha (Homo sapiens) (UniProt P09471)
Assay: RGS7-Galphao binding modulators, primary screen, biochemical, multiplexed bead flow cytometry (AID 1439);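 note: fluorescent Galphao held in activated GDP-AlF4 state binding bead-coupled RGS7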
Settings: at 10 µM, actives lie on both sides

The chains behind the UniProt entries cited, without tags or fusion partners.
UniProt P09471, whole entry, looked up: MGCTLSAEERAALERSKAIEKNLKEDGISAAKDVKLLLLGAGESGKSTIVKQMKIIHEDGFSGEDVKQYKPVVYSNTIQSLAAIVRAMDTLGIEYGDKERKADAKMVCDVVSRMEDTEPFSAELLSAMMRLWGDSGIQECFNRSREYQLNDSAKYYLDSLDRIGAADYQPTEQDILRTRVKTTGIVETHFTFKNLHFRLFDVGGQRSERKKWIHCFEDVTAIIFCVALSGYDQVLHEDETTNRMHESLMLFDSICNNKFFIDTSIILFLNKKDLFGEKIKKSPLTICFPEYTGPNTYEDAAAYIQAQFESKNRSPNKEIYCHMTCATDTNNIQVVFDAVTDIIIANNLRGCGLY

Compound	binding response (% of control)
CC(=O)O/N=C(\N)c1cnn2c(C(F)(F)F)cc(C(F)(F)F)nc12	inconclusive: -278%
COC(=O)c1c(C(=O)OC)c2n(c1C)CCS2	inconclusive: 123%
CCOC(=O)C1(Cc2ccc(OC)cc2)CCN(C(=O)[C@@H]2CCCN2C(C)=O)CC1	inconclusive: 43.9%
O=C(Nc1ccc(S(=O)(=O)Nc2ncccn2)cc1)c1ccc(S(=O)(=O)N2CCCC2)cc1	inconclusive: 98.9%
CSc1ccc(C#N)cc1NC(=O)c1ccccc1C	inconclusive: 91.7%
COC(=O)CC1(C(=O)OC)Oc2ccc(Br)cc2C(=O)N1c1cccc(Cl)c1Cl (stereo unspecified)	inconclusive: 92%
CC(Sc1nc2scc(-c3ccccc3)c2c(=O)[nH]1)C(=O)NC(N)=O (stereo unspecified)	inconclusive: 80.9%
Cc1cccc(Cl)c1NC(=S)N1CCN(c2ccc([N+](=O)[O-])cn2)CC1	inconclusive: 72.3%
O=C(Nc1ccc(F)cc1)Nc1ccc(NC(=O)c2ccccc2O)cc1	inconclusive: 119%
Cc1nc([N+](=O)[O-])cn1CCC#N	inconclusive: 117%
Cc1ccc(S(=O)(=O)Oc2cccc(/C=N/Nc3ccc(C(=O)O)cc3)c2)cc1	inconclusive: 74.5%
Brc1ccc(-c2ncc3ccccn23)cc1	inconclusive: 79.6%
COc1c(O)cc2oc(-c3ccc(O)c(O)c3)cc(=O)c2c1O	inconclusive: 118%
CCOC(=O)Cc1nnc(Nc2ccc(C(=O)NC)cc2)c2ccccc12	inconclusive: 25.2%
CC(=O)Nc1cc2c(=O)n(Cc3ccccc3)c(C)nc2cc1N1CCOCC1	inactive: 113%
O=C(Nc1ccccc1)Nc1ccno1	inconclusive: 97.4%
CCOC(=O)/C(=C/Nc1ccc(F)c(F)c1)[N+](=O)[O-]	inconclusive: 206%
Cc1cc(C)cc(N2CCCC2=O)c1	inactive: 99.7%
O=C(N/N=C/c1ccccn1)NC12CC3CC(CC(C3)C1)C2	inconclusive: 100%
Cc1ccc2c(c1)c1nnc(SCC(=O)Nc3ccccc3C(F)(F)F)nc1n2CC(=O)O	inconclusive: 156%
Nc1nc(SCC(=O)Nc2ccc(Cl)c(S(=O)(=O)N3CCOCC3)c2)n[nH]1	inconclusive: 136%
O=C1COc2ccc(C(=O)COC(=O)C3CC(O)CN3S(=O)(=O)c3ccc(Cl)cc3)cc2N1 (stereo unspecified)	inconclusive: 104%
COc1ccc(NC(=O)c2scc(S(=O)(=O)C(C)C)c2N)cc1	inconclusive: 102%

Compound	binding response (% of control)
CC(C)CCNC(=O)c1cc2c(s1)-c1ccccc1S(=O)(=O)C2	inconclusive: 112%
Cn1cc(C(=O)c2ccc(Cl)cc2Cl)cc1C(=O)N/N=C(\N)COc1cccc(C(F)(F)F)c1	inactive: 102%
O=C(NNC(=O)c1ccc(NC(=O)c2ccccc2)cc1)c1ccccc1	inconclusive: 77.2%
CCN=C1SC(C(=O)Nc2ccc(OC)cc2)CC(=O)N1CC (stereo unspecified)	inactive: 103%
CCOC(=O)c1sc(NC(=S)NC(=O)C2CCCC2)cc1C	inactive: 139%
CC1CCc2c(sc(Nc3nc4c(F)cccc4s3)c2C(N)=O)C1 (stereo unspecified)	inactive: 97.8%
Cc1ccc(CNC(=O)CS(=O)(=O)c2ccccc2)cc1	inconclusive: 78%
Cc1cccc(-c2cc(=O)c(C(=O)O)cn2-c2ccc(F)cc2F)c1	inconclusive: 115%
CCn1c2ccccc2c2cc(NC(=O)c3ccccc3-c3ccccc3C(=O)O)ccc21	inconclusive: 123%
Cc1ccc(NC2c3ccccc3C(=O)N2c2cccnc2)cc1 (stereo unspecified)	inconclusive: 104%
NC(=O)CC(NC(=O)c1ccc(Br)cc1)c1ccc(N2CCN(c3ccccn3)CC2)c([N+](=O)[O-])c1 (stereo unspecified)	inconclusive: 126%
CC(=O)Cn1ncc(N2CCOCC2)cc1=O	inconclusive: 89.5%
COc1ccc(CCn2c(C(C)C)nc3oc4ccccc4c(=O)c3c2=O)cc1	inconclusive: -28%
CCCNC(=S)N1CCC(NC(=O)Nc2ccc(C)cc2)CC1	inactive: 100%
CCOC(=O)c1csc(-c2snnc2C)n1	inconclusive: 102%
Cc1nnc(-c2ccccc2)o1	inconclusive: 40.1%
Oc1[nH]c2ccc(Br)cc2c1N=NC(=S)N1CCOCC1	inconclusive: 92.4%
CCOC(=O)c1c(N)ssc1=S	inconclusive: 57.6%
O=C(Nc1ccc(-c2csc(Nc3ccccc3)n2)cc1)c1cccc(C(F)(F)F)c1	inconclusive: 119%
CCOc1ccc(NC(=O)C2CCC(CNc3c(N4CCCCC4)c(=O)c3=O)CC2)cc1 (stereo unspecified)	inconclusive: 69%
COc1ccc(NS(=O)(=O)c2cn(C)c(=O)n(C)c2=O)cc1	inconclusive: 109%
COc1cc(NS(=O)(=O)c2ccc(NC(=S)NC(=O)COc3ccccc3OC)cc2)nc(OC)n1	inactive: 103%
FC(F)Oc1ccccc1C1CC(c2ccc(Br)s2)Nc2ncnn21 (stereo unspecified)	active: 163% [activator]

Structural class, the compounds so far with a thiophene ring, fused or not.
Compound	binding response (% of control)
CC(Sc1nc2scc(-c3ccccc3)c2c(=O)[nH]1)C(=O)NC(N)=O (stereo unspecified)	inconclusive: 80.9%
COc1ccc(NC(=O)c2scc(S(=O)(=O)C(C)C)c2N)cc1	inconclusive: 102%
CC(C)CCNC(=O)c1cc2c(s1)-c1ccccc1S(=O)(=O)C2	inconclusive: 112%
CCOC(=O)c1sc(NC(=S)NC(=O)C2CCCC2)cc1C	inactive: 139%
CC1CCc2c(sc(Nc3nc4c(F)cccc4s3)c2C(N)=O)C1 (stereo unspecified)	inactive: 97.8%
FC(F)Oc1ccccc1C1CC(c2ccc(Br)s2)Nc2ncnn21 (stereo unspecified)	active: 163% [activator]

(list continues)

Compound	binding response (% of control)
Cc1ccccc1N1CCN(Cc2nc(Cc3ccccc3F)no2)CC1	inconclusive: 106%
CCOC(=O)Cc1csc(NS(=O)(=O)c2ccc(C(F)(F)F)cc2)n1	inconclusive: 87.2%
O=C(Nc1ccc(Cl)cc1)Nc1ccc(N2CCC(C(F)(F)F)CC2)nc1	inconclusive: 96.4%
COc1ccc(CCNS(=O)(=O)c2cccc3cccnc23)cc1OC	inconclusive: 104%
Cc1c(C(=O)Nc2ccc(N3CCOCC3)cc2)cccc1[N+](=O)[O-]	inconclusive: 68.4%
CCC1=NN2C(=N)/C(=C\c3cccn3-c3c(C)cccc3C)C(=O)N=C2S1	inconclusive: 105%
COc1ccc(CCNC(=O)C23CCC(C)(C(=O)C2Br)C3(C)C)cc1OC (stereo unspecified)	inconclusive: 116%
CS(=O)(=O)c1cccc(NC(=O)C2CC2)c1	inconclusive: 70.9%
CN(C)c1ccc(P(=O)(OCc2ccccc2)C(O)c2ccc(Cl)cc2)cc1 (stereo unspecified)	inconclusive: 136%
CCCn1nc2cc(C(=O)NCCCCc3ccccc3)ccc2c1OCC	inactive: 106%
Cc1cc(C)c2c(n1)sc1c(N3CCCCC3)ncnc12	inconclusive: 90.7%
CCOc1cc(C(=O)CCC(=O)OCC(=O)Nc2ccc(C)c(S(=O)(=O)N(C)C)c2)ccc1O	inconclusive: 90%
CC(C)OC(=O)c1ccc(NC(=O)c2ccco2)cc1	inactive: 102%
Cc1nc(Nc2ccc(O)cc2)c2c3c(sc2n1)CCCC3	inconclusive: 93.1%
Cc1cc(C(=O)NNC(=O)Nc2cccc(C(F)(F)F)c2)no1	inconclusive: 103%
c1ccc2c(c1)CCN(C1=Nc3cccc4cccc1c34)C2	inactive: 102%
CC1(c2ccccc2Cl)NC(=O)N(CC(=O)NCc2ccco2)C1=O (stereo unspecified)	inconclusive: 219%
CCOC(=O)COc1nc2c(c(-c3ccco3)c1C#N)CCc1ccccc1-2	inconclusive: 112%
Oc1ccc(/C=C/c2cnccn2)cc1	inconclusive: 125%
Cc1ccc(S(=O)(=O)N2CCCOC2CNC(=O)C(=O)NC2CCCCC2)cc1 (stereo unspecified)	inactive: 106%
COc1ccc(CC2(CO)CCN(CC3=Cc4cc(Cl)ccc4OC3)CC2)cc1	inactive: 71.5%
CC(=O)Nc1nnc(CSCc2ccc(F)cc2)s1	inconclusive: 71.5%
CCC(C(=O)OCC(=O)Nc1cc(C)ccc1OC)c1ccccc1 (stereo unspecified)	inconclusive: 108%

Compound	binding response (% of control)
COc1ccccc1-c1nn2c(-c3ccco3)nnc2s1	inactive: 93.8%
COCc1cc(=O)[nH]c(-c2ccccc2OC(F)(F)F)n1	inconclusive: 107%
O=c1cc(-c2ccccc2)[nH]n1-c1nc2ccccc2[nH]1	inactive: 106%
Nc1nnnn1CC(=O)N/N=C/c1cc([N+](=O)[O-])ccc1Cl	inconclusive: 84.3%
Cc1ccc(N/C(=C\C(=O)c2ccccc2)C(=O)O)cc1	inactive: 99.8%
O=C(Nc1ccc2c(c1)OCO2)N1CCN(c2ccccc2Cl)CC1	inactive: 99%
CC(=O)c1cc(C#N)c(N2CCOCC2)nc1C	inconclusive: 99.3%
CCOC(=O)C1CCCN(c2c(NCCc3ccc(C)cc3)c(=O)c2=O)C1 (stereo unspecified)	inconclusive: 82.7%
CCOC(=O)C1CCCN1C(=O)c1ccc(OC)c(Br)c1 (stereo unspecified)	inconclusive: 96.9%
NC(=O)c1ccc(NC(=O)CCC(=O)N2CCN(S(=O)(=O)c3ccc(Cl)cc3)CC2)cc1	inconclusive: 129%
Cc1ccc(Cl)cc1NC(=S)NN	inconclusive: 117%
Cc1cc(N2CCC(C)CC2)nc(-c2ccccc2O)n1	inconclusive: 7.57%
COc1ccc(C(=O)c2c[nH]c(C(=O)NCc3ccco3)c2)cc1	active: 20.4%
COc1ccc(N=C2SCC(=O)N2CCc2ccc(OC)c(OC)c2)cc1	inconclusive: 113%
CC(OC(=O)c1ccccc1Oc1ccccc1)C(=O)NC1CC1 (stereo unspecified)	inconclusive: 101%
CN(C)/C=C(/C(=O)c1ccc(Cl)cc1)n1cncn1	inconclusive: 90.1%
COC(=O)NNC(=S)Nc1ccc(Br)cc1	inactive: 109%
CCOC(=O)C1=NNC2(c3ccc(C)cc3)C(=O)N(c3ccccc3)C(=O)C12 (stereo unspecified)	inconclusive: 90.2%
CN(C(=O)CSc1nnc(-c2ccccc2)o1)c1c(N)n(Cc2ccccc2)c(=O)[nH]c1=O	inconclusive: 98.9%
Cc1noc(C)c1COC(=O)CCCc1c[nH]c2ccccc12	inactive: 84.4%
CCN1CCN(c2cc(C)c3cc(NC(=O)c4cccs4)ccc3n2)CC1	inconclusive: 61.6%
COc1ccc(-n2c(C)c([N+](=O)[O-])c3ccc(O)c(CN4CCCCC4)c32)cc1	inactive: 78.9%

Reference: PubChem BioAssay AID1439 (NMMLSC, 2008)
